The values below come from the supplement of paper PMC10032668.

Sequences of proteins named here, by UniProt entry; tags and fusion partners are left off.
EIF3D, O15371, UniProt O15371, whole entry: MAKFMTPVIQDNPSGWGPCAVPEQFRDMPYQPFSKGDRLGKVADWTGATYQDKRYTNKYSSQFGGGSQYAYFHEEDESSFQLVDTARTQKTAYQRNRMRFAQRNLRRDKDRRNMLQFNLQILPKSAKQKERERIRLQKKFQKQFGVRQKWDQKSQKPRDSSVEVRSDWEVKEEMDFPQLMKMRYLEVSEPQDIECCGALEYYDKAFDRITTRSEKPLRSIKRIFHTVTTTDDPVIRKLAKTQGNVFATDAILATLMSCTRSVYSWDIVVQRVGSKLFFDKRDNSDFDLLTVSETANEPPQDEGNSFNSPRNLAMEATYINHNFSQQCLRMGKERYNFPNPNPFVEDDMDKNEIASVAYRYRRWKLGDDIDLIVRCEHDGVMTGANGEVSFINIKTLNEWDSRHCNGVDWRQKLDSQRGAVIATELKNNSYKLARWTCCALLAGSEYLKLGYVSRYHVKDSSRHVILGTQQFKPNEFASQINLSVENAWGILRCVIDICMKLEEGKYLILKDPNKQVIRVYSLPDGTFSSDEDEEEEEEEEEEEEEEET
FLNA, P21333, UniProt P21333, whole entry: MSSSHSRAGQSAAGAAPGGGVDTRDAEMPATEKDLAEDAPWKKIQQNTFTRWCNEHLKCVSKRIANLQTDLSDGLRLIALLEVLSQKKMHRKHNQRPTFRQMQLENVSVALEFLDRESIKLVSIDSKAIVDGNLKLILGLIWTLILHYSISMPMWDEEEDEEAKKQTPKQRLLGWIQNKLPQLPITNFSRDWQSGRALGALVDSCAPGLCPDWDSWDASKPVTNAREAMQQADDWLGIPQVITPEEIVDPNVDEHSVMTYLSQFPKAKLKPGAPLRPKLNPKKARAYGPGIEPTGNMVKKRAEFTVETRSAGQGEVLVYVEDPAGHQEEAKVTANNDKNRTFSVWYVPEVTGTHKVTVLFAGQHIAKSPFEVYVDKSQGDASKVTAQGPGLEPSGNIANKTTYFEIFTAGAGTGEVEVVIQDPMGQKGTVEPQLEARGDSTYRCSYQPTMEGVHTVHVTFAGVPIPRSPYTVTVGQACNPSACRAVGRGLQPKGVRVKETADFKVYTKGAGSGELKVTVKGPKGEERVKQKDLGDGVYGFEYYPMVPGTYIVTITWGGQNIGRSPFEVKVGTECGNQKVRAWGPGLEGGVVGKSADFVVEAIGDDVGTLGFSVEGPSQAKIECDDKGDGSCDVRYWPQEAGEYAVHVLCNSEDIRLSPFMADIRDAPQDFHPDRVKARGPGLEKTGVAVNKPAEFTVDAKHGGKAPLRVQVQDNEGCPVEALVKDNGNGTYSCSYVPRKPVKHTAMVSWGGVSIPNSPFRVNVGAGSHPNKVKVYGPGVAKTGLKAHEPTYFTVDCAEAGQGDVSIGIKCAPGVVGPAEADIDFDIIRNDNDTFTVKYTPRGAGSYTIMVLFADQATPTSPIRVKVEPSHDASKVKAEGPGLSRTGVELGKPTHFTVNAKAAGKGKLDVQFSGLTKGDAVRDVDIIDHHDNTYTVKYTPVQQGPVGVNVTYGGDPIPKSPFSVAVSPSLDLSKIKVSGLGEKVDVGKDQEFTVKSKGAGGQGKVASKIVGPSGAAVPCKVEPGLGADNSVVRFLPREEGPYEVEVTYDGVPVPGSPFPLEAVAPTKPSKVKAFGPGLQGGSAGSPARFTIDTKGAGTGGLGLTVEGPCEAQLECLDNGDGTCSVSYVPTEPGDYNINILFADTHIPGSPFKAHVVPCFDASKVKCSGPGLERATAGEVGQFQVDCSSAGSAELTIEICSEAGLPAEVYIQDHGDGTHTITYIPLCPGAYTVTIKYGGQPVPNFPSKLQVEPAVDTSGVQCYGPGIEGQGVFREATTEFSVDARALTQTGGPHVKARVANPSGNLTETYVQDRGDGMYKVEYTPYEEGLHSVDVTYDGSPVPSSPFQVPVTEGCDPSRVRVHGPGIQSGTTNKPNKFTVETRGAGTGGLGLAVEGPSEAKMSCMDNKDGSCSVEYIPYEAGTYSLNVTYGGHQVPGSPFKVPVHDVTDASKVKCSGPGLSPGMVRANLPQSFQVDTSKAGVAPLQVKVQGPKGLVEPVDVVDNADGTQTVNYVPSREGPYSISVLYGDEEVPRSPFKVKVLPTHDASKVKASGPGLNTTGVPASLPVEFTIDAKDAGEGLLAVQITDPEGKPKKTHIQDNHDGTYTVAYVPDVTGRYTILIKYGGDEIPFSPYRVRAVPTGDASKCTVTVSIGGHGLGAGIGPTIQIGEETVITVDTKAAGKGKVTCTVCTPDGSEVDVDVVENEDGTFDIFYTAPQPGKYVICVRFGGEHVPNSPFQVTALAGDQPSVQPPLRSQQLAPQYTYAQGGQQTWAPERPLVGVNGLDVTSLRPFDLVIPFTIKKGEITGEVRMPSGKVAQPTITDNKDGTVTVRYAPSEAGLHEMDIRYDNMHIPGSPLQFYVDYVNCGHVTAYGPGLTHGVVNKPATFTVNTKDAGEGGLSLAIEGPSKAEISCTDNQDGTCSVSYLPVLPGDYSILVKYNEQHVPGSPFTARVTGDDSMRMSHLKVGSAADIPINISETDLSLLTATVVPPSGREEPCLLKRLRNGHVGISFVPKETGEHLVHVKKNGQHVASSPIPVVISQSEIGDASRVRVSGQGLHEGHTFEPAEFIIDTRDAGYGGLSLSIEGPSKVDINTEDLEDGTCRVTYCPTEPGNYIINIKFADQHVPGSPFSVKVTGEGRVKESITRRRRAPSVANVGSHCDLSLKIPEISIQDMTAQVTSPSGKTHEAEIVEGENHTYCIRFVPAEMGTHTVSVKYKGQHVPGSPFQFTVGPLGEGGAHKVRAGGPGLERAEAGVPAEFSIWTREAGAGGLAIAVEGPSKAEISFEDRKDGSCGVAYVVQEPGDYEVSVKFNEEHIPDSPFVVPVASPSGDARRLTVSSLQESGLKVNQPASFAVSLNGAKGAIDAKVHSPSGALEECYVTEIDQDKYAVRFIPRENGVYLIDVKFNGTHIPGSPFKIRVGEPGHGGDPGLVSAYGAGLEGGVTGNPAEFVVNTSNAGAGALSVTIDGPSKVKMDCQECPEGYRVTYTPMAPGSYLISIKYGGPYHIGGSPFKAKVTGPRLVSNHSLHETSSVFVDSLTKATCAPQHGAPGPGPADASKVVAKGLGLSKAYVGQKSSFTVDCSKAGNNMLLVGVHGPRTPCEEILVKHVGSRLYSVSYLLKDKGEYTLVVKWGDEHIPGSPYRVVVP
RANBP2, P49792, UniProt P49792, whole entry: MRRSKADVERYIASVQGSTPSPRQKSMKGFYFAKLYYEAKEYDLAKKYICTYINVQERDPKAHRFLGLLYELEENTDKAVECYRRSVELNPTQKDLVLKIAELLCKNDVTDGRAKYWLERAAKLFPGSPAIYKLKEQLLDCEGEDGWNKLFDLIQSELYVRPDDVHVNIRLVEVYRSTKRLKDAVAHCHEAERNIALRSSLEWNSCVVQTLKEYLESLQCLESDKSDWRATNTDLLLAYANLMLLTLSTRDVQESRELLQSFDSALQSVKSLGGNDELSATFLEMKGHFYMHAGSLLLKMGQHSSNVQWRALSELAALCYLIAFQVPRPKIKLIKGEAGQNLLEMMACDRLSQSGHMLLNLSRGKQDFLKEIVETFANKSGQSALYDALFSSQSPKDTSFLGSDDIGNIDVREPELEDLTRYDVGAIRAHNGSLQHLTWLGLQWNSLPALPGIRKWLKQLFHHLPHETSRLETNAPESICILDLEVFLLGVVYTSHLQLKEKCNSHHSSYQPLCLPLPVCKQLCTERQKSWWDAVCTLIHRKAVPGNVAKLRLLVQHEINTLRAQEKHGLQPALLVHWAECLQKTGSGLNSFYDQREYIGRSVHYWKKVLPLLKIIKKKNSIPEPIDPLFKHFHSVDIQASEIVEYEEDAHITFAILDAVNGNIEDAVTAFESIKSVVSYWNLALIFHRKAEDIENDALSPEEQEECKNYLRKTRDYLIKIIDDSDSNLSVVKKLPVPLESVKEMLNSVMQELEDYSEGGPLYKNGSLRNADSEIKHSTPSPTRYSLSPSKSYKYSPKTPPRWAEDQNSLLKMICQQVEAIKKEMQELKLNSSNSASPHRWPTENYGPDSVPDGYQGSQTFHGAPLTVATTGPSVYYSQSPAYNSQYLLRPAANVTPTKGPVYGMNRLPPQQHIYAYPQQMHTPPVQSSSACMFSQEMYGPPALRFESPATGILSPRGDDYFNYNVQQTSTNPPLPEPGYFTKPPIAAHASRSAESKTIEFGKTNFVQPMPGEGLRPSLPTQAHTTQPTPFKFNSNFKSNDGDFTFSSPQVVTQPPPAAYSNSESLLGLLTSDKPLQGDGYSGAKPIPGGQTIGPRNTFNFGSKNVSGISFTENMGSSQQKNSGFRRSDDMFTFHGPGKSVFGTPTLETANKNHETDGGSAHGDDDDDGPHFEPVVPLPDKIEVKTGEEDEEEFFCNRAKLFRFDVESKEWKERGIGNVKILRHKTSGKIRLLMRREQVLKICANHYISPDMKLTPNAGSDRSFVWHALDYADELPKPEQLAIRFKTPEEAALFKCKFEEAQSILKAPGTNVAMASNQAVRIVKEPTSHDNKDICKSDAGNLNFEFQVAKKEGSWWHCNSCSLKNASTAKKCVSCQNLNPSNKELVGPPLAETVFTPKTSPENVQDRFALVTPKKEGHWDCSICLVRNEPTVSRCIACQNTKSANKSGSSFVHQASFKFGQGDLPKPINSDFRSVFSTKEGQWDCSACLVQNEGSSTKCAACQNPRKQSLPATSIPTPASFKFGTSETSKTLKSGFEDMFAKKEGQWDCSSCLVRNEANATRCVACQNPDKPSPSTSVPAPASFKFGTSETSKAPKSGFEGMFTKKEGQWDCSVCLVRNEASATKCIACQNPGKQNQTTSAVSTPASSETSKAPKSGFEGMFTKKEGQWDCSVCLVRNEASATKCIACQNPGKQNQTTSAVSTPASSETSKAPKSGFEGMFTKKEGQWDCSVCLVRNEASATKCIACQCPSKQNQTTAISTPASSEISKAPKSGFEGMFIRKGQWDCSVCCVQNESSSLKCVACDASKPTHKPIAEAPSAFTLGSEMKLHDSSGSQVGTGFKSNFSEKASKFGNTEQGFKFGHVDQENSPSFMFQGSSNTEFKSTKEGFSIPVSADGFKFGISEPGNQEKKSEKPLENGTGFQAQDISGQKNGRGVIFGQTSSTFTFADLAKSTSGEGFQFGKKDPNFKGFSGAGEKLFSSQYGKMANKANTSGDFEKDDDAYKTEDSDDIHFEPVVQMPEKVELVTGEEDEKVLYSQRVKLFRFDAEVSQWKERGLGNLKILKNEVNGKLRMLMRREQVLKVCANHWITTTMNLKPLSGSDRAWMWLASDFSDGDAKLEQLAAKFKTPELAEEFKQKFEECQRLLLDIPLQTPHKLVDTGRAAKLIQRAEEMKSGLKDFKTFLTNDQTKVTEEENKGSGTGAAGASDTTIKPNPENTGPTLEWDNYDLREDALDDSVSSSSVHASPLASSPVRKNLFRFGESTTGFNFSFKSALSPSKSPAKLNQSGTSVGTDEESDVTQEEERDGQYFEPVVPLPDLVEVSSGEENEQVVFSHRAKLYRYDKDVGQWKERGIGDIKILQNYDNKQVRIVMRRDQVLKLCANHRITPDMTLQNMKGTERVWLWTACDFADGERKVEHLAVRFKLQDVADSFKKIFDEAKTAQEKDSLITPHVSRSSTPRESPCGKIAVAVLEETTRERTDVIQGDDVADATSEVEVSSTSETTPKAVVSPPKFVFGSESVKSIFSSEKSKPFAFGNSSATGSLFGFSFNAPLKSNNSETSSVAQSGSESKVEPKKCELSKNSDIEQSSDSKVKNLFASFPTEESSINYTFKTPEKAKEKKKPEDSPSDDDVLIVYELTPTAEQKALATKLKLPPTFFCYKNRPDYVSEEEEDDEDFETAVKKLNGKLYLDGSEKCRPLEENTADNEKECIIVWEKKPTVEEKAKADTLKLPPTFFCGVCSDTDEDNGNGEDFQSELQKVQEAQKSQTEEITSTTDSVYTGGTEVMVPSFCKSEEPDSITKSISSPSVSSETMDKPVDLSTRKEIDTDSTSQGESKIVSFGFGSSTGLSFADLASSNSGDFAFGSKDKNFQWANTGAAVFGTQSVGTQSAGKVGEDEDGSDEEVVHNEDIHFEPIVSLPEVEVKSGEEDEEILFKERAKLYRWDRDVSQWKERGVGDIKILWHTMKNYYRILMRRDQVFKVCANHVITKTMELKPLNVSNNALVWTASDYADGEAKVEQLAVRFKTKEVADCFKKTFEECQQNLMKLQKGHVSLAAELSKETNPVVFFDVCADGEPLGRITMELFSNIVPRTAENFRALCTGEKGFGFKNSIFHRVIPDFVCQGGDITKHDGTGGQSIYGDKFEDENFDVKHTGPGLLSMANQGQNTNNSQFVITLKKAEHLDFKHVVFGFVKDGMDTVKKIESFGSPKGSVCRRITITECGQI
EIF1, P41567, UniProt P41567, whole entry: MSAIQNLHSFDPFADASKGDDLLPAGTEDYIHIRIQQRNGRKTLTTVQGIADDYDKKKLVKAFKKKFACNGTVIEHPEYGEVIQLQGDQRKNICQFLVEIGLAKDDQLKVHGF

Common to all, as to assay: PRISMA enrichment of interactor (LFQ) in peptide spot vs all other peptide spots (log2 fold change); higher = stronger / more specific binding of the interactor to the peptide
One assay addresses ACACA, Q13085. How it is done: (§1)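 PRISMA: 15-aa overlapping tiles (offset 8 aa) of 60 microproteins, plus SOS1/GLUT1 control peptides, were spot-synthesized on cellulose membranes in triplicate. Membranes were incubated with benzonase-treated HEK293T lysate, and bound proteins were identified by LC-MS/MS with LFQ. Enrichment is the log2 fold change of each protein in one spot versus all other spots. Only interactors passing the significance cutoff are listed.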

A further assay deals with CBSL. How it is done:
as §1

Another assay has as its target CHD1, O14646. The protocol: as §1
In the next assay the target is COPZ1, P61923. How it is done: as §1
Substrate in assay [1]: CS, O75390
How it is done: as §1

For the next assay, the target named is CTPS1, P17812. How it is done: as §1
For a further assay, the target named is ECPAS, Q5VYK3. The protocol: as §1
A further assay concerns the target EIF3D, O15371. How it is done: as §1
The target in a further assay is FLNA, P21333. The protocol: as §1
The target in the next assay is FLOT1, O75955. The protocol: as §1
In a further assay the target is GAR1, Q9NY12. The protocol:
as §1

In a further assay the target is GPD1L, Q8N335. How it is done: as §1
For the next assay, the target named is GTF3C5, Q9Y5Q8. The protocol: as §1
In the next assay the target is HSPA6, P17066. The protocol: as §1
For a further assay, the target named is LRRC59, Q96AG4. How it is done: as §1
A further assay deals with MAGT1, Q9H0U3. The protocol: as §1
The next assay addresses MRPS9, P82933. The protocol:
as §1

A further assay concerns the target MRTO4, Q9UKD2. The protocol:
as §1

Another assay concerns the target NCAPH, Q15003. The protocol: as §1
The next assay deals with NOB1, Q9ULX3. How it is done:
as §1

A further assay has as its target NUP93, Q8N1F7. How it is done:
as §1

Another assay deals with ORC3, Q9UBD5. How it is done:
as §1

Another assay concerns the target PDAP1, Q13442. The protocol: as §1
For another assay, the target named is PRPF4B. The protocol: as §1
A further assay addresses PSMC1, P62191. The protocol:
as §1

The target of the next assay is RAN, P62826. The protocol: as §1
Another assay has as its target RANBP2, P49792. The protocol:
as §1

In the next assay the target is SLC25A24, Q6NUK1. How it is done:
as §1

Another assay addresses SMARCE1, Q969G3. The protocol:
as §1

For the next assay, the target named is UTP18, Q9Y5J1. How it is done: as §1
For the next assay, the target named is ACAA2, P42765. How it is done:
as §1

The target in another assay is ARHGEF2, Q92974. How it is done:
as §1

The next assay deals with CAPZA1, P52907. The protocol: as §1
The target in the next assay is EIF1, P41567. How it is done:
as §1

Another assay deals with LSG1, Q9H089. How it is done:
as §1

A further assay deals with MPP1, Q00013. How it is done: as §1
For a further assay, the target named is MRPL44, Q9H9J2. How it is done:
as §1

The target in another assay is NDUFA8, P51970. How it is done: as §1
The target of a further assay is NOP56, O00567. How it is done: as §1
In another assay the target is PARK7, Q99497. How it is done:
as §1

The next assay addresses PCBP2, Q15366. The protocol: as §1
In the next assay the target is SLC4A1AP, Q9BWU0. How it is done: as §1
The target in the next assay is SNX1, Q13596. The protocol: as §1
Another assay concerns the target STAT1, P42224. The protocol: as §1
For another assay, the target named is ZC3H11A, O75152. How it is done: as §1
The target in a further assay is ACTA1, P68133. The protocol: as §1
The target in another assay is ARL6, Q9H0F7. How it is done:
as §1

The target in another assay is CNIH4, Q9P003. The protocol: as §1
The next assay addresses COG3, Q96JB2. The protocol: as §1
A further assay addresses FKBP8, Q14318. The protocol:
as §1

The target in another assay is HAX1, O00165. How it is done: as §1
For another assay, the target named is IGHMBP2, P38935. How it is done: as §1
A further assay addresses MRPL27, Q9P0M9. The protocol:
as §1

The next assay has as its target MSI1, O43347. The protocol: as §1
For the next assay, the target named is PPP2R5D, Q14738. How it is done:
as §1

Some of the results follow. The list holds hits alone, and they repeat only in part.

As for PRHLPVDFLAERMLA [PVT1], the “PRISMA enrichment of interactor (log2)” value came to 4.81 with ACACA, Q13085; 9.07 with CBSL; 5.53 with CHD1, O14646; 4.62 with COPZ1, P61923; 6.89 in [1]; 5.02 with CTPS1, P17812. Moreover, the “PRISMA enrichment of interactor (log2)” value is 5.25 in the assay with ECPAS, Q5VYK3; 6.45 with EIF3D, O15371; 5.25 with FLNA, P21333; 7.59 in the assay with FLOT1, O75955; 6.95 in the assay with GAR1, Q9NY12; 9.76 in the assay with GPD1L, Q8N335. In addition, the “PRISMA enrichment of interactor (log2)” value stood at 6.73 in the assay with GTF3C5, Q9Y5Q8; 6.51 with HSPA6, P17066; 5.43 with LRRC59, Q96AG4; 6.9 in the assay with MAGT1, Q9H0U3; 5.12 with MRPS9, P82933; 5.5 with MRTO4, Q9UKD2. For the same molecule, the “PRISMA enrichment of interactor (log2)” value amounted to 5.1 with NCAPH, Q15003; 5.89 with NOB1, Q9ULX3; 4.97 in the assay with NUP93, Q8N1F7; 4.67 with ORC3, Q9UBD5; 5.87 with PDAP1, Q13442; 8.61 in the assay with PRPF4B. Moreover, the “PRISMA enrichment of interactor (log2)” value with PSMC1, P62191 amounted to 6.51; with RAN, P62826, 4.97; with RANBP2, P49792, 5.19; in the assay with SLC25A24, Q6NUK1, 5.7; with SMARCE1, Q969G3, 6.28; with UTP18, Q9Y5J1 it was 12.3.

On to TLQLSVLVAFASGVL [MTLN], for which the “PRISMA enrichment of interactor (log2)” value with ACAA2, P42765 worked out at 5.21; with ARHGEF2, Q92974, 5.73; with CAPZA1, P52907 it was 4.53; with COPZ1, P61923 it was 4.3; with EIF1, P41567 it was 4.76; in the assay with LSG1, Q9H089, 5.36. For the same molecule, the “PRISMA enrichment of interactor (log2)” value in the assay with MPP1, Q00013 turned out to be 4.86; with MRPL44, Q9H9J2, 6.17; in the assay with NDUFA8, P51970 it was 4.55; with NOP56, O00567, 5.62; in the assay with PARK7, Q99497, 4.75; in the assay with PCBP2, Q15366, 4.17. The “PRISMA enrichment of interactor (log2)” value with SLC4A1AP, Q9BWU0 was found to be 6.69; in the assay with SNX1, Q13596 it was 5.18; with STAT1, P42224, 4.41; in the assay with ZC3H11A, O75152 it was 4.32.

Consider MASLDFFLWRLDSKI [RP3-332B22.1], for which the “PRISMA enrichment of interactor (log2)” value came out at 8.93 with ACAA2, P42765; 5.51 in the assay with ACTA1, P68133; 3.98 with ARL6, Q9H0F7; 4.74 with CNIH4, Q9P003; 4.28 with COG3, Q96JB2; 4.93 with EIF1, P41567. Moreover, the “PRISMA enrichment of interactor (log2)” value was 4.06 with FKBP8, Q14318; 4.48 with HAX1, O00165; 5.92 with IGHMBP2, P38935; 7.43 with MRPL27, Q9P0M9; 5.17 in the assay with MSI1, O43347; 5.04 with PPP2R5D, Q14738.
